The nature of one series: general procedure: solution-phase peptide synthesis; TPTU/HOBT/DIEA; HATU/DIEA. As to conditions: late stage modification step.
Regarding “(6aS,8R,12S,13S,15aS,17R,21S,23aS)-12-((S)-3-(3,5-difluorophenyl)-2-(3-(3,4-dimethylphenyl)ureido)propanamido)-13,17,21-trimethyl-6,11,15,20,23-pentaoxooctadecahydro-6H,11H,15H-[1,4]oxazino[3,4-i]dipyrrolo[2,1-c:2′,1′-L][1]oxa”, the step yield result is listed as “about 27%”.

Consider “(S)—N-((2R,6S,8aS,14aS,20S,23aS)-2,6-dimethyl-5,8,14,19,23-pentaoxooctadecahydro-1H,5H,14H,19H-pyrido[2,1-i]dipyrrolo[2,1-c:2′,1′-l][1]oxa[4,7,10,13]tetraazacyclohexadecin-20-yl)-2-(3-(4-ethylphenyl)ureido)-3-phenylpropanamide”, for which the step yield worked out at 16%.

In turn, “(S)-2-(3-(benzo[d][1,3]dioxol-5-yl)ureido)-3-(3,5-difluorophenyl)-N-((2R,6S,8aS,14aS,20S,21S,23aS)-2,6,21-trimethyl-5,8,14,19,23-pentaoxooctadecahydro-1H,5H,14H,19H-pyrido[2,1-i]dipyrrolo[2,1-c:2′,1′-l][1]oxa[4,7,10,13]tetraazacyclohexadecin-20-yl)propanamide” returned a step yield of 29%.

With “(S)-3-(3,5-difluorophenyl)-2-(3-(1-methylindolin-6-yl)ureido)-N-((2R,6S,8aS,14aS,20S,21S,23aS)-2,6,21-trimethyl-5,8,14,19,23-pentaoxooctadecahydro-1H,5H,14H,19H-pyrido[2,1-i]dipyrrolo[2,1-c:2′,1′-l][1]oxa[4,7,10,13]tetraazacyclo-hexadecin-20-yl)propanamide”, the step yield is reported as 24.7%.

For “(S)—N-((2R,6S,8aS,14aS,20S,23aS)-2,6-dimethyl-5,8,14,19,23-pentaoxooctadecahydro-1H,5H,14H,19H-pyrido[2,1-i]dipyrrolo[2,1-c:2′,1′-l][1]oxa[4,7,10,13]tetraazacyclohexadecin-20-yl)-2-(3-(3-ethylphenyl)ureido)-3-phenylpropanamide”, the step yield amounted to 22.7%.

With “(S)-2-(3-(4-chlorophenyl)ureido)-N-((2R,6S,8aS,14aS,20S,23aS)-2,6-dimethyl-5,8,14,19,23-pentaoxooctadecahydro-1H,5H,14H,19H-pyrido[2,1-i]dipyrrolo[2,1-c:2′,1′-l][1]oxa[4,7,10,13]tetraazacyclohexadecin-20-yl)-3-phenylpropanamide”, the step yield is 49.7%.

With “(S)—N-((2R,6S,8aS,14aS,20S,23aS)-2,6-dimethyl-5,8,14,19,23-pentaoxooctadecahydro-1H,5H,14H,19H-pyrido[2,1-i]dipyrrolo[2,1-c:2′,1′-l][1]oxa[4,7,10,13]tetraazacyclohexadecin-20-yl)-2-(3-(4-Methoxyphenyl)ureido)-3-phenylpropanamide”, the step yield came to 20.9%.

“(S)-2-(3-(2-chlorophenyl)ureido)-N-((2R,6S,8aS,14aS,20S,23aS)-2,6-dimethyl-5,8,14,19,23-pentaoxooctadecahydro-1H,5H,14H,19H-pyrido[2,1-i]dipyrrolo[2,1-c:2′,1′-l][1]oxa[4,7,10,13]tetraazacyclohexadecin-20-yl)-3-phenylpropanamide” returned a step yield of 14.5%.

Still in this series, the particulars now being: late stage modification step, on macrocycle C.
Substance “(S)-3-(3,5-difluorophenyl)-N-((2S,6S,8aS,14aS,20S,23aS)-2,6-dimethyl-5,8,14,19,23-pentaoxooctadecahydro-1H,5H,14H,19H-pyrido[2,1-i]dipyrrolo[2,1-c:2′,1′-l][1]oxa[4,7,10,13]tetraazacyclohexadecin-20-yl)-2-(3-(p-tolyl)ureido)propanamide” returned a step yield of 26.3%.

For “(S)-3-(3,5-difluorophenyl)-2-(3-(4-(trifluoromethoxy)phenyl)ureido)-N-((2R,6S,8aS,14aS,20S,21S,23aS)-2,6,21-trimethyl-5,8,14,19,23-pentaoxooctadecahydro-1H,5H,14H,19H-pyrido[2,1-i]dipyrrolo[2,1-c:2′,1′-L][1]oxa[4,7,10,13]tetraazacyclohexadecin-20-yl)propanamide”, the step yield turned out to be 68.3%.

Take “(S)-3-(3,5-difluorophenyl)-2-(3-(4-ethylphenyl)ureido)-N-((2S,6S,9S,11aS,17S,18S,20aS)-2,6,9,10,18-pentamethyl-5,8,11,16,20-pentaoxohexadecahydro-1H,5H,16H-dipyrrolo[2,1-c:2′,1′-L][1]oxa[4,7,10,13]tetraazacyclohexadecin-17-yl)propanamide”: the step yield was 37.9%.

“(S)-3-(3,5-difluorophenyl)-N-((2R,6S,8aS,14aS,20S,23aS)-2,6-dimethyl-5,8,14,19,23-pentaoxooctadecahydro-1H,5H,14H,19H-pyrido[2,1-i]dipyrrolo[2,1-c:2′,1′-l][1]oxa[4,7,10,13]tetraazacyclohexadecin-20-yl)-2-(3-(p-tolyl)ureido)propanamide” had a step yield of 31%.

In the case of “(2S)-3-(3,5-difluorophenyl)-N-((2S,6S,9S,11aS,17S,18S)-2,6,9,10,18-pentamethyl-5,8,11,16,20-pentaoxohexadecahydro-1H,5H,16H-dipyrrolo[2,1-c:2′,1′-l][1]oxa[4,7,10,13]tetraazacyclohexadecin-17-yl)-2-(3-(p-tolyl)ureido)propanamide”, the step yield was determined as 16.9%.

Regarding “(S)-3-(3,5-difluorophenyl)-N-((2S,6S,9S,11aS,17S,18S,20aS)-9-((R)-1-hydroxyethyl)-2,6,10,18-tetramethyl-5,8,11,16,20-pentaoxohexadecahydro-1H,5H,16H-dipyrrolo[2,1-c:2′,1′-l][1]oxa[4,7,10,13]tetraazacyclohexadecin-17-yl)-2-(3-(4-(trifluoromethoxy)phenyl)ureido)propanamide”, the step yield is given as 38.8%.

Consider “(S)-3-(3,5-difluorophenyl)-2-(3-(4-(trifluoromethoxy)phenyl)ureido)-N-((6aS,12S,13S,15aS,17S,21S,23aS)-13,17,21-trimethyl-6,11,15,20,23-pentaoxooctadecahydro-6H,11H,15H-[1,4]oxazino[3,4-i]dipyrrolo[2,1-c:2′,1′-l][1]oxa[4,7,10,13]tetraazacyclohexadecin-12-yl)propanamide”, for which the step yield is given as 43.6%.

Substance “(2S)-3-(3,5-difluorophenyl)-N-((6S,9S,11aS,17S,18S)-6,9,10,18-tetramethyl-5,8,11,16,20-pentaoxohexadecahydro-1H,5H,16H-dipyrrolo[2,1-c:2′,1′-l][1]oxa[4,7,10,13]tetraazacyclohexadecin-17-yl)-2-(3-(4-(trifluoromethoxy)phenyl)ureido)propanamide” had a step yield of 16%.

Take “(2S)-3-(3,5-difluorophenyl)-N-((6S,9S,11aS,17S,18S)-6,9,10,18-tetramethyl-5,8,11,16,20-pentaoxohexadecahydro-1H,5H,16H-dipyrrolo[2,1-c:2′,1′-l][1]oxa[4,7,10,13]tetraazacyclohexadecin-17-yl)-2-(3-(p-tolyl)ureido)propanamide”: the step yield is 30.7%.

The substance “(S)-3-(3,5-difluorophenyl)-N-((2S,6S,8aS,14aS,20S,23aS)-2-fluoro-6-methyl-5,8,14,19,23-pentaoxooctadecahydro-1H,5H,14H,19H-pyrido[2,1-i]dipyrrolo[2,1-c:2′,1′-l][1]oxa[4,7,10,13]tetraazacyclohexadecin-20-yl)-2-(3-(p-tolyl)ureido)propanamide” had a step yield of 25.2%.

Regarding “(S)—N-((2S,6S,8aS,14aS,20S,23aS)-2,6-dimethyl-5,8,14,19,23-pentaoxooctadecahydro-1H,5H,14H,19H-pyrido[2,1-i]dipyrrolo[2,1-c:2′,1′-l][1]oxa[4,7,10,13]tetraazacyclohexadecin-20-yl)-3-phenyl-2-(3-(4-(trifluoromethoxy)phenyl)ureido)propanamide”, the step yield came out at 39.9%.

“(S)—N-((2R,6S,8aS,14aS,20S,23aS)-2,6-dimethyl-5,8,14,19,23-pentaoxooctadecahydro-1H,5H,14H,19H-pyrido[2,1-i]dipyrrolo[2,1-c:2′,1′-l][1]oxa[4,7,10,13]tetraazacyclohexadecin-20-yl)-3-phenyl-2-(3-(p-tolyl)ureido)propanamide” yielded a step yield of 30%.

With “(S)-3-(3,5-difluorophenyl)-2-(3-(p-tolyl)ureido)-N-((6S,8aS,14aS,20S,23aS)-2,2,6-trimethyl-5,8,14,19,23-pentaoxooctadecahydro-1H,5H,14H,19H-pyrido[2,1-i]dipyrrolo[2,1-c:2′,1′-l][1]oxa[4,7,10,13]tetraazacyclohexadecin-20-yl)propanamide”, the step yield turned out to be 34.7%.

Take “(2S)-3-(3,5-difluorophenyl)-2-(3-(4-ethylphenyl)ureido)-N-((6S,9S,11aS,17S,18S)-6,9,10,18-tetramethyl-5,8,11,16,20-pentaoxohexadecahydro-1H,5H,16H-dipyrrolo[2,1-c:2′,1′-l][1]oxa[4,7,10,13]tetraazacyclohexadecin-17-yl)propanamide”: the step yield is 36.1%.

The series is the same for the next values; noted with them: late stage modification step, on macrocycle C; run 1.
Take “(S)-2-(3-(benzo[d][1,3]dioxol-5-yl)ureido)-3-(3,5-difluorophenyl)-N-((2R,6S,8aS,14aS,20S,21S,23aS)-2,6,21-trimethyl-5,8,14,19,23-pentaoxooctadecahydro-1H,5H,14H,19H-pyrido[2,1-i]dipyrrolo[2,1-c:2′,1′-l][1]oxa[4,7,10,13]tetraazacyclohexadecin-20-yl)propanamide”: the step yield was determined as 29%.

The series is the same for the next values; noted with them: late stage modification step, on macrocycle C; run 2.
With “(S)-2-(3-(benzo[d][1,3]dioxol-5-yl)ureido)-3-(3,5-difluorophenyl)-N-((2R,6S,8aS,14aS,20S,21S,23aS)-2,6,21-trimethyl-5,8,14,19,23-pentaoxooctadecahydro-1H,5H,14H,19H-pyrido[2,1-i]dipyrrolo[2,1-c:2′,1′-l][1]oxa[4,7,10,13]tetraazacyclohexadecin-20-yl)propanamide”, the step yield is 83%.

Still in this series, the particulars now being: late stage modification step, sodium salt.
As for “sodium (2R,6S,8aS,14aS,16R,20S,21S,23aS)-20-((S)-3-(3,5-difluorophenyl)-2-(3-(3,4-dimethylphenyl)ureido)propanamido)-2,6,21-trimethyl-5,8,14,19,23-pentaoxooctadecahydro-1H,5H,14H,19H-pyrido[2,1-i]dipyrrolo[2,1-c:2′,1′-l][1]oxa”, the step yield entry is “about 99%”.

On to “sodium (2R,6S,8aS,14aS,16R,20S,21S,23aS)-20-((S)-3-(3,5-difluorophenyl)-2-(3-(p-tolyl)ureido)propanamido)-2,6,21-trimethyl-5,8,14,19,23-pentaoxooctadecahydro-1H,5H,14H,19H-pyrido[2,1-i]dipyrrolo[2,1-c:2′,1′-l][1]oxa[4,7,10,13]”, for which the step yield result is “about 79%”.

(Values after patent US10457707B2 (priority 2015, dated 2019).)
